Publication PMC6718413, “Improving mass spectrometry analysis of protein structures with arginine-selective chemical cross-linkers” (Nature Communications, 2019)
Results are given in words; binding and its absence hold for the method and conditions named. Some binding calls cover weakened binding; strength is not graded here. Each block holds one molecule with its values, some of them ahead of it.

Sequences of proteins named here, by UniProt entry; tags and fusion partners are left off. Residues count along the entry.
N-terminal domains (NTD) of alpha-kinase 1 (ALPK1), residues 1-473 (Q96QP1, residues 1-473): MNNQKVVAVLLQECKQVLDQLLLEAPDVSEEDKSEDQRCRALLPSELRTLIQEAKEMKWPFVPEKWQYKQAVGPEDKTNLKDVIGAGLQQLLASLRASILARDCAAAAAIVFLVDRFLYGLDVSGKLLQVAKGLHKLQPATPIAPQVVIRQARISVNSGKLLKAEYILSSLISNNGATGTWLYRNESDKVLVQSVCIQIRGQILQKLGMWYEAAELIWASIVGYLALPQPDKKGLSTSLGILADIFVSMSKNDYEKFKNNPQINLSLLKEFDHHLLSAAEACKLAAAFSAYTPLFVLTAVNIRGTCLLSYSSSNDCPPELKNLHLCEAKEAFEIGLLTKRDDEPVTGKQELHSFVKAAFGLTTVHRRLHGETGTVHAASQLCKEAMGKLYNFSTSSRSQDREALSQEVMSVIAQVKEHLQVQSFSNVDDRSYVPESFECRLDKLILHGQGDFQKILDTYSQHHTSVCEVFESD
ALPK1 kinase domain (KD), residues 959-1244 (Q96QP1, residues 959-1244): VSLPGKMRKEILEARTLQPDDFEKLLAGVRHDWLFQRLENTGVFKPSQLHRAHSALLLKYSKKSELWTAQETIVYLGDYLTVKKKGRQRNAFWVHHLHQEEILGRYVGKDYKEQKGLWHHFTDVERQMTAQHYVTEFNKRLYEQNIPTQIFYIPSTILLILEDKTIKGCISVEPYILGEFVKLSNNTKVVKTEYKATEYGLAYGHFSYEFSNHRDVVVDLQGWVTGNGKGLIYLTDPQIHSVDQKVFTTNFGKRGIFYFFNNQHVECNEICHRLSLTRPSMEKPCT

Key:
[1] = target: N-terminal domains (NTD) of alpha-kinase 1 (ALPK1), residues 1-473 (human) (UniProt Q96QP1); experiment: co-purification; GST-ALPK1 (1–473) and ALPK1 (959–1244) co-expressed in E. coli; glutathione sepharose, GST removed by HRV 3C, gel filtration
[2] = target: N-terminal domains (NTD) of alpha-kinase 1 (ALPK1), residues 1-473 (human) (UniProt Q96QP1); experiment: cross-linking; ALPK1 NTD-KD complex (0.6 μg/μl) with 0.1, 0.2 mM KArGO at RT for 15 min; LC-MS/MS; compared with NTD alone; both purified
[3] = target: T1, C-terminal domain (CTD) of Utp5 (residue 433-591) (UniProt Q04177); experiment: co-purification; two His6-Smt3-tagged CTDs co-expressed; HisTrap, tags cleaved with Ulp1, heparin column, second HisTrap pass
T1 sequence: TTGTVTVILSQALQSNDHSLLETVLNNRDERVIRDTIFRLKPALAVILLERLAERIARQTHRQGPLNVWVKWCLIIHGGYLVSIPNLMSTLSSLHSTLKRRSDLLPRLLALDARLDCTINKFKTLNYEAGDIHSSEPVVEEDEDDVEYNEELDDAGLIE

[4] = target: T1, C-terminal domain (CTD) of Utp5 (residue 433-591); experiment: cross-linking; UtpA sub-complex (0.5 μg/μl) with 0.1, 0.2 and 0.4 mM KArGO in 50 mM borate, 50 mM HEPES (pH 7.5) at RT for 15 min; LC-MS/MS; both purified
[5] = target: T2, CTD of Utp15 (residue 380-513) (UniProt Q04305); experiment: cross-linking; UtpA sub-complex (0.5 μg/μL) with 0.5 mM BS^3 at RT for 45 min, quenched with 20 mM NH4HCO3; LC-MS/MS; both purified
T2 sequence: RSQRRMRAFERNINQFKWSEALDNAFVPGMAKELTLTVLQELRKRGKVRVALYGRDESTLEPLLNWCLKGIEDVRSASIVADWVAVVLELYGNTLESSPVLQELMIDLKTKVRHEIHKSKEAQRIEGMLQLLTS

[6] = target: T2, CTD of Utp15 (residue 380-513); experiment: cross-linking; UtpA sub-complex (0.5 μg/μl) with 0.1, 0.2 and 0.4 mM KArGO in 50 mM borate, 50 mM HEPES (pH 7.5) at RT for 15 min; LC-MS/MS; both purified
[7] = target: T3, CTD of Utp9 (residue 361-569) (UniProt P38882); experiment: co-purification; two His6-Smt3-tagged CTDs co-expressed; HisTrap, tags cleaved with Ulp1, heparin column, second HisTrap pass
T3 sequence: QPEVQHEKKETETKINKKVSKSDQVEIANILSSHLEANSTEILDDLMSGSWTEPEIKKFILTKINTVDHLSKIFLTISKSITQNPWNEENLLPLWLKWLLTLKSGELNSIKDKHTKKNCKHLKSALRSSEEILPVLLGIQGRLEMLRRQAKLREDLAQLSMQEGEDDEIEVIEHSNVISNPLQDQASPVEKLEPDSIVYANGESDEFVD

- binding [1]: binds
- binding [2]: binds
Molecule: ALPK1 kinase domain (KD), residues 959-1244 (from UniProt Q96QP1 959-1244) (domain or fragment)

- binding [3]: binds
- binding [4]: binds
B1: CTD of Utp15 (residue 380-513) (domain or fragment, UniProt Q04305 380-513, looked up)
chain: RSQRRMRAFERNINQFKWSEALDNAFVPGMAKELTLTVLQELRKRGKVRVALYGRDESTLEPLLNWCLKGIEDVRSASIVADWVAVVLELYGNTLESSPVLQELMIDLKTKVRHEIHKSKEAQRIEGMLQLLTS
notes: Utp15, subunit of UtpA, residues 380-513; The tags were cleaved with Ulp1; also called Utp15 CTD

- binding [5]: binds
- binding [4]: binds
- binding [6]: binds
B2: CTD of Utp9 (residue 361-569) (domain or fragment, UniProt P38882 361-569)
chain: QPEVQHEKKETETKINKKVSKSDQVEIANILSSHLEANSTEILDDLMSGSWTEPEIKKFILTKINTVDHLSKIFLTISKSITQNPWNEENLLPLWLKWLLTLKSGELNSIKDKHTKKNCKHLKSALRSSEEILPVLLGIQGRLEMLRRQAKLREDLAQLSMQEGEDDEIEVIEHSNVISNPLQDQASPVEKLEPDSIVYANGESDEFVD

- binding [7]: binds
B3: CTD of Utp8 (residue 518-713) (domain or fragment, UniProt P53276 518-713)
chain: DYPKTLTFLLTHPLFPLSRTRNLLSLLRDQPRLFKQAIVTCPNLPLNELLEELFSIRNRELLLDISFRILQDFTRDSIKQEMKKLSKLDVQNFIEFITSGGEDSSPECFNPSQSTQLFQLLSLVLDSIGLFSLEGALLENLTLYIDKQVEIAERNTELWNLIDTKGFQHGFASSTFDNGTSQKRALPTYTMEYLDI
